No constants are given. Whether binding was seen depends on the method and setting. In cells and extracts the contact can be indirect. Some results given as binding are weak or reduced against the parent protein; the word gives no strength.
Biological target: FLAG-tagged FTO (UniProt Q9C0B1)
Assay: co-IP; HEK293T cells co-transfected with FLAG-tagged FTO and HA-tagged ubiquitin, with or without GSK3β; FTO immunoprecipitated with an anti-FLAG antibody, Western blotting

Protein sequences, listed by entry. Tags and fused reporters are not part of them.
UniProt P49841: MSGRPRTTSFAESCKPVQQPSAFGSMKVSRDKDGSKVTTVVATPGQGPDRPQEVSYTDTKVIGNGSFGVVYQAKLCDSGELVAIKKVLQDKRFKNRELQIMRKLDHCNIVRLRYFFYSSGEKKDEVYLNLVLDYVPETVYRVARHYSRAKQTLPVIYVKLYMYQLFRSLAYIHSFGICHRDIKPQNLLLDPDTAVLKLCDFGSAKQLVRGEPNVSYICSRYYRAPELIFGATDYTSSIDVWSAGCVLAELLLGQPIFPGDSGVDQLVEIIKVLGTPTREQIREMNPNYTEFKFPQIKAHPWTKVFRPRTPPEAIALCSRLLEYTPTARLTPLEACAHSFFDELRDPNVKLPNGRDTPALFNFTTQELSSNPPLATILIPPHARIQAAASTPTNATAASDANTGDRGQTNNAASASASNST

- binding: binds
Substance: GSK3β (from UniProt P49841 1-420) (enzyme)

— paper PMC12877946
